According to PubChem BioAssay AID2685 (National Center for Advancing Translational Sciences (NCATS), 2010):
The list shows a part of the results. Shown are side measurements of this screen, not its main read-out; they come without a call. Most of these compounds were active or inconclusive in the main read-out, so they are no random draw. Potencies come from curve fits of mixed quality, noted in brackets.

Assay: qHTS Assay for Lipid Storage Modulators in Drosophila S3 Cells;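 on cell number change: cells counted by Cell Tracker Red CMTPX staining in the red channel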
Conditions: BODIPY lipid droplet fluorescence, 18-24 h; for cell number change: measured here: cell count max response, cells fed with added oleic acid
Outline: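 Drosophila S3 cells got compounds at several concentrations plus oleic acid (400 uM solution). Laser-scanning cytometry with 488 nm excitation read lipid droplets at 500-530 nm and cells at 575-640 nm. Percent activity was relative to 20 uM Triacsin C.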

[1] = measured here: lipid fluorescence (Fed channel) AC50, cells fed with added oleic acid
[2] = measured here: cell number channel AC50, cells fed with added oleic acid

Structure (SMILES)	cell number change [%]	AC50 [1]	AC50 [2]
COc1ccc(S(=O)(=O)N(C)c2ccccc2)c2cccnc12	-15.8	–	–
Cc1cccc(NS(=O)(=O)c2ccc(C)c(C(=O)NCC(c3ccco3)N3CCCCC3)c2)c1 (centres undefined)	-23	29.1 µM [falling, single point]	–
CCc1ccc(NC(=S)N(CCC(C)C)C2CCN(C(C)=O)CC2)cc1	–	6.51 µM [rising, partial curve, poor fit]	–
Cc1cc(S(=O)(=O)N2CCCCC2CCNC(=O)C(=O)NCc2cccnc2)ccc1F (centres undefined)	-29.7	0.00517 µM [falling, full curve, poor fit]	–
CC12CCC(C(=O)NCc3cccnc3)(OC1=O)C2(C)C (centres undefined)	2.19	0.00517 µM [falling, full curve, poor fit]	–
Cc1cc2ncn(C(=O)c3c(-c4ccccc4)noc3C)c2cc1C	-16.7	–	–
CCN(C(=O)COC(=O)c1ccc(C=O)cc1)c1c(N)n(Cc2ccccc2)c(=O)[nH]c1=O	9.73	0.291 µM [rising, partial curve, poor fit]	–
Cc1noc(C)c1S(=O)(=O)N(CC(=O)NCCc1ccccc1)c1ccc(C(C)C)cc1	-7.08	–	–
COC(=O)C1=C(C)NC(C)=C(C(=O)OC)C1c1ccccc1OCc1c(C)no[n+]1[O-]	-24.9	–	0.461 µM [falling, full curve, poor fit]
C=CCN(CC(=O)NC1CCCC1)C(=O)C(=O)Nc1ccc2c(c1)OCCO2	19.2	0.103 µM [rising, full curve, poor fit]	–
COc1cc(-c2nc(Cc3c(F)cccc3Cl)no2)cc(OC)c1OC	–	6.51 µM [rising, single point]	4.11 µM [rising, single point]
CCCCC1=NN(C(=O)c2cccnc2)C(O)(C(F)(F)F)C1 (centres undefined)	-21.5	3.66 µM [falling, full curve]	4.11 µM [falling, single point]
COc1ccc(Cl)cc1NC(=S)NCCC(c1ccccc1)c1ccccc1	-23.8	14.6 µM [falling, single point]	–
CCCn1c(SCC(=O)Nc2cccc(C(=O)OC)c2)nnc1-c1cccnc1	20.6	–	–
CC(=O)N1CCN(C(=O)c2ccc(S(=O)(=O)Nc3ccccc3C)cc2)CC1	-34.6	–	18.4 µM [falling, single point]
Cc1ccc(N=C2NC(=O)/C(=C\c3cccs3)S2)cc1C	22.7	8.2 µM [rising, partial curve]	2.31 µM [rising, full curve, poor fit]
Cc1cccc(C(=O)Nc2ccnc(-c3cccnc3)n2)c1	10.5	0.517 µM [rising, partial curve, poor fit]	–
COc1ccc(CNC(=O)COC(=O)CCOc2ccc(C)cc2)cc1	75	–	16.4 µM [rising, single point]
Cc1ccc(CCNC(=O)C2CCC(=O)N(Cc3ccccc3F)C2)o1 (centres undefined)	-6.1	–	–
Cc1cccc(NC(=O)CSc2ncnc3sc(C)c(C)c23)n1	-22.1	2.91 µM [falling, partial curve]	–

3 entries from above, sorted by molecular weight, ascending:
Structure (SMILES)	cell number change [%]	AC50 [1]	AC50 [2]
Cc1cc2ncn(C(=O)c3c(-c4ccccc4)noc3C)c2cc1C	-16.7	–	–
CCc1ccc(NC(=S)N(CCC(C)C)C2CCN(C(C)=O)CC2)cc1	–	6.51 µM [rising, partial curve, poor fit]	–
C=CCN(CC(=O)NC1CCCC1)C(=O)C(=O)Nc1ccc2c(c1)OCCO2	19.2	0.103 µM [rising, full curve, poor fit]	–

Remaining list, next part

Structure (SMILES)	cell number change [%]	AC50 [1]	AC50 [2]
CCOc1ccc(-c2nnc3ccc(SCc4ccc(C(=O)OC)o4)nn23)cc1	-19	6.51 µM [rising, partial curve]	–
CCOC(=O)[C@H]1[C@H]2COc3ccccc3[C@@H]2N2C(=O)c3c(C)cc(C)cc3NC(=O)[C@@]12C	-29.3	–	–
BrC(/C=N/Nc1nc(N2CCOCC2)nc(N2CCOCC2)n1)=C/c1ccccc1	-19.5	32.6 µM [falling, single point]	–
COC(=O)c1ccccc1S(=O)(=O)NNC(=O)c1ccccc1-n1cccc1	-20.8	22.4 µM [falling, single point]	–
O=C(C/C=N\OCc1c(Cl)cccc1Cl)Oc1ccc(Cl)cc1Cl	-7.09	–	–
CN(C)Cc1c(O)ccc2c(=O)c(-c3ccc(Cl)cc3)coc12	3.17	18.4 µM [falling, partial curve, poor fit]	–
Cc1cc(=O)c(C(=O)Nc2cccc(N3CCCC3=O)c2)nn1-c1ccccc1F	-10.1	0.58 µM [falling, partial curve, poor fit]	0.651 µM [falling, partial curve, poor fit]
CCN(CC)C(=O)C(=O)Nc1ccc(Oc2ccccc2)cc1	-3.12	2.59 µM [falling, partial curve, poor fit]	–
Cc1nn(-c2ccccc2)c(C)c1NC(=O)COC(=O)CCCOc1ccccc1	1.31	0.103 µM [falling, full curve, poor fit]	–
CC(=O)c1cccc(S(=O)(=O)Nc2ccc3nc(C)sc3c2)c1	17.2	–	–
O=C(O)c1ccccc1C(=O)c1ccc(Br)s1	7.59	0.0231 µM [falling, full curve]	–
O=C(N1CCCCC1)N1CCN(C(c2ccccc2)c2ccccc2)CC1	–	–	0.146 µM [falling, full curve, poor fit]
Cc1csc(NC(=O)CSc2ccc([N+](=O)[O-])cn2)n1	-40.1	–	35.5 µM [falling, single point]
COc1ccc(C)cc1N(CC(=O)Nc1ccc(S(=O)(=O)N2CCCC2)cc1)S(C)(=O)=O	-15	10.3 µM [falling, partial curve]	1.84 µM [falling, partial curve]
CCOc1ccc(C(=O)NC(=S)Nc2ccccc2N2CCCCC2)cc1[N+](=O)[O-]	16.3	0.411 µM [rising, full curve]	–
CCCCN(CCCC)c1nc2ccccc2nc1NS(=O)(=O)c1ccc(NC(C)=O)cc1	-4.07	–	–
O=C(Nc1cc(C(F)(F)F)ccc1N1CCCC1)c1ccc2c(c1)OCO2	–	6.51 µM [rising, single point]	–
Cc1nc(C)c(NC(=O)OC(C)C)cc1NC(=O)OC(C)C	-4.76	–	–
CCN(CC(=O)Nc1c(F)cccc1F)C(=O)C1CCN(S(=O)(=O)c2ccc(F)cc2)CC1	0.549	0.103 µM [rising, full curve, poor fit]	–
